# Assay results reported in ChEMBL document CHEMBL1153473, “Synthesis and biochemical evaluation of a range of sulfonated derivatives of 4-hydroxybenzyl imidazole as highly potent inhibitors of rat testicular 17alpha-hydroxylase/17,20-lyase (P-450(17alpha))” (Bioorg Med Chem Lett, 2009).
# Biological target: T1, Aromatase (Homo sapiens, UniProt P11511)
# T1 sequence (P11511 whole entry): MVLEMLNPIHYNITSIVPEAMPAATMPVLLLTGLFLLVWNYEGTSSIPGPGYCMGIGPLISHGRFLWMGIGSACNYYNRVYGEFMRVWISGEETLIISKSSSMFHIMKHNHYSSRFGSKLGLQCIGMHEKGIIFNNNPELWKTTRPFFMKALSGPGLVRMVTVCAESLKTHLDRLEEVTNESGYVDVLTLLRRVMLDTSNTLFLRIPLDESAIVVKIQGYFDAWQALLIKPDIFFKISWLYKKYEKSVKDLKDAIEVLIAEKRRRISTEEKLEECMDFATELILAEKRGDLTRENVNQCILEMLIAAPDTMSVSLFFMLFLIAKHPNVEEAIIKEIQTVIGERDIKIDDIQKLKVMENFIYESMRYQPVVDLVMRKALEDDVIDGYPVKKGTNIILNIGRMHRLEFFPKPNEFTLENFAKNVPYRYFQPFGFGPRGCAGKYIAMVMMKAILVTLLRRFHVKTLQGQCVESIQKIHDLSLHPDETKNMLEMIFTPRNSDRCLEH
# Test: Inhibition of aromatase
row,IC50,SMILES
1,1200 nM,N#Cc1ccc(Cn2ccnc2)cc1
2,130 nM,O=[N+]([O-])c1ccc(Cn2ccnc2)cc1
